{"source": "PubChem BioAssay AID1259425 (University of Nebraska Medical Center, 2018)", "test": "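Find knockdowns that reproduce the gene expression pattern seen when KSR1 is lost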 (primary screen)", "cell system": "HCT116 human colon cancer cells", "reagent": "siRNA pool against human genes, 50 nM siRNA", "measurement": "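mRNA of six signature genes measured together by branched-DNA assay after 50 nM siRNA pool, blank removed, divided by geometric mean of two housekeeping genes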", "direction": "BNIP3L mRNA: higher = more BNIP3L transcript after knockdown; NDRG1 mRNA: higher = more NDRG1 transcript after knockdown", "note": "The deposit covers about 14,000 reagents; below is a random part of them. Not all columns of the deposit are shown. Reagent sequences are not shown. The record does not give: the time to read-out."}
{"target":"KLC3 (GeneID 147700)","BNIP3L mRNA, set 1":0.115,"NDRG1 mRNA, set 1":0.251}
{"target":"FKBP15 (GeneID 23307)","BNIP3L mRNA, set 1":0.065,"NDRG1 mRNA, set 1":0.28}
{"target":"RAP2C (GeneID 57826)","BNIP3L mRNA, set 1":0.0896,"NDRG1 mRNA, set 1":0.0834}
{"target":"CD160 (GeneID 11126)","BNIP3L mRNA, set 1":0.122,"NDRG1 mRNA, set 1":0.268}
{"target":"HLA-A (GeneID 3105)","BNIP3L mRNA, set 1":0.117,"NDRG1 mRNA, set 1":0.625}
{"target":"GPR52 (GeneID 9293)","BNIP3L mRNA, set 1":0.241,"NDRG1 mRNA, set 1":0.194}
{"target":"CPA3 (GeneID 1359)","BNIP3L mRNA, set 1":0.154,"NDRG1 mRNA, set 1":0.292}
{"target":"LIFR (GeneID 3977)","BNIP3L mRNA, set 1":0.0891,"NDRG1 mRNA, set 1":0.117}
{"target":"GRHPR (GeneID 9380)","BNIP3L mRNA, set 1":0.0858,"NDRG1 mRNA, set 1":0.0892}
{"target":"ANGPT1 (GeneID 284)","BNIP3L mRNA, set 1":0.126,"NDRG1 mRNA, set 1":0.474}
{"target":"ABTB2 (GeneID 25841)","BNIP3L mRNA, set 1":0.179,"NDRG1 mRNA, set 1":0.155}
{"target":"ADISSP (GeneID 54976)","BNIP3L mRNA, set 1":0.0814,"NDRG1 mRNA, set 1":0.399}
{"target":"SAFB2 (GeneID 9667)","BNIP3L mRNA, set 1":0.0913,"NDRG1 mRNA, set 1":0.147}
{"target":"RADIL (GeneID 55698)","BNIP3L mRNA, set 1":0.13,"NDRG1 mRNA, set 1":0.109}

A few values from above:
Entry for CPA3 (GeneID 1359) in “BNIP3L mRNA, set 1”: 0.154
Under “BNIP3L mRNA, set 1”, FKBP15 (GeneID 23307) has 0.065
For “NDRG1 mRNA, set 1”, HLA-A (GeneID 3105) is entered as 0.625
ANGPT1 (GeneID 284), BNIP3L mRNA, set 1 → 0.126

Next entries:
{"target":"MAPK9 (GeneID 5601)","BNIP3L mRNA, set 1":0.0837,"NDRG1 mRNA, set 1":0.0899}
{"target":"ASGR2 (GeneID 433)","BNIP3L mRNA, set 1":0.0347,"NDRG1 mRNA, set 1":0.103}
{"target":"ADAM21 (GeneID 8747)","BNIP3L mRNA, set 1":0.11,"NDRG1 mRNA, set 1":0.219}
{"target":"MXRA5 (GeneID 25878)","BNIP3L mRNA, set 1":0.283,"NDRG1 mRNA, set 1":0.0806}
{"target":"E4F1 (GeneID 1877)","BNIP3L mRNA, set 1":0.0268,"NDRG1 mRNA, set 1":0.0658}
{"target":"BRD1 (GeneID 23774)","BNIP3L mRNA, set 1":0.0956,"NDRG1 mRNA, set 1":0.099}
{"target":"PAQR8 (GeneID 85315)","BNIP3L mRNA, set 1":1.36,"NDRG1 mRNA, set 1":0.764}
{"target":"KPTN (GeneID 11133)","BNIP3L mRNA, set 1":0.161,"NDRG1 mRNA, set 1":0.158}
{"target":"MOB3B (GeneID 79817)","BNIP3L mRNA, set 1":0.059,"NDRG1 mRNA, set 1":0.554}
{"target":"LINC00260 (GeneID 84719)","BNIP3L mRNA, set 1":0.135,"NDRG1 mRNA, set 1":0.389}
{"target":"TARDBP (GeneID 23435)","BNIP3L mRNA, set 1":0.0789,"NDRG1 mRNA, set 1":0.14}
{"target":"PRLR (GeneID 5618)","BNIP3L mRNA, set 1":0.0855,"NDRG1 mRNA, set 1":0.19}
{"target":"THSD7A (GeneID 221981)","BNIP3L mRNA, set 1":0.0843,"NDRG1 mRNA, set 1":0.481}
{"target":"HPN (GeneID 3249)","BNIP3L mRNA, set 1":0.145,"NDRG1 mRNA, set 1":0.275}
{"target":"AQP2 (GeneID 359)","BNIP3L mRNA, set 1":0.0738,"NDRG1 mRNA, set 1":0.0934}
{"target":"LGALS9 (GeneID 3965)","BNIP3L mRNA, set 1":0.133,"NDRG1 mRNA, set 1":0.32}
{"target":"COL20A1 (GeneID 57642)","BNIP3L mRNA, set 1":0.238,"NDRG1 mRNA, set 1":0.708}
{"target":"H2AC11 (GeneID 8969)","BNIP3L mRNA, set 1":0.114,"NDRG1 mRNA, set 1":0.0859}
{"target":"ZNF514 (GeneID 84874)","BNIP3L mRNA, set 1":0.119,"NDRG1 mRNA, set 1":0.0843}
{"target":"TSPAN14 (GeneID 81619)","BNIP3L mRNA, set 1":0.19,"NDRG1 mRNA, set 1":0.217}
{"target":"NOS3 (GeneID 4846)","BNIP3L mRNA, set 1":0.146,"NDRG1 mRNA, set 1":0.117}
{"target":"DNAJB12 (GeneID 54788)","BNIP3L mRNA, set 1":0.108,"NDRG1 mRNA, set 1":0.117}
